Screen size: about 53,000 sequences; about 3,700 (7%) were called active.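 Rule for the calls: active = gene knockdowns whose robust z-score for IL-1 alpha signal is at least 2 or at most -2, so actives lie on both sides; inactive = the rest.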 The list shows a part of the results.
Assay: Components of the Cytosolic LPS Sensing Pathway: Gene Identification via Genome-wide siRNA Screen;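 note: robust z of the log signal after scaling to non-targeting control siRNA wells of the plate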
Conditions: RAW264.7 macrophages, IL-1a HTRF, actives lie on both sides, screened at 100 nM (by protocol), cells primed 5 h with Pam3CSK4 first
Method in brief: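 IL-1a HTRF of supernatants after 24 hour LipidA transfection of Pam3CSK4-primed (5 hours) RAW264.7 cells, 48h post-siRNA transfection (100 nM). Scores: percent of plate negative-control median, then log-based robust z-score.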

Sequence	z-score
GGACGAACAAUAGAAGAACTT against Agtpbp1	inactive: 0.813
GGUAACAUCAACACCAAACTT against Nit1	inactive: -1.6
CCGAGAGCCAAGAUGCCAATT against Armc7	inactive: -0.178
GGAACAAAGAAGUCAAAGATT against Olfr16	inactive: -0.765
GGAGAGAAGUUUAUGAAAGTT against Ankk1	inactive: 0.0135
GGAUUUCAAUAGGCUCUCUTT against Rnf19a	inactive: -1.7
CCUACAGGCGGAGAAACAUTT against Serhl	inactive: -1.28
GGUCCAUGGAAUAGUACGGTT against Gmds	inactive: 0.917
GGGUUGUACUGAAAUAGUGTT against Il1rap	inactive: 0.397
GGGUUUGAAAAUUGUACAATT against Sypl	inactive: 1.49
CCCUUAUAUUUCUAACAGUTT against Chchd2	inactive: 0.345
GGCACAGUAUGUACUAACUTT against Gpld1	inactive: -1.81
ACCUGGGCCUAUGCCUUACTT against Ascl2	inactive: -0.573
GCCUGGAUUUAUCGAAUUATT against 2610524H06Rik	inactive: 0.453
GGCAUUUUAUAAGUUUGAGTT against Mitf	inactive: 0.978
GCUUACCUAGUGCUCUUAATT against Kctd15	inactive: 0.149
GGUGUUAAGACUAAAACUUTT against Plxdc2	inactive: -0.995
GUUGGCAUAUUUUAUGGCATT against Olfr1033	inactive: 1.28
GCUAGACAUCGGUUCUUAUTT against Eomes	inactive: 0.79
GAUACAGAUCGCCAAGAGCTT against H2-D4	inactive: -0.455
GCUGGAUAUGGUCAAGGCGTT against Ndufa5	inactive: 0.493
GGUAAGUGAACUAUCUAAGTT against Far2	inactive: 0.934
GGAACAGAAAGCAGUGUACTT against Dnajc9	inactive: 1.22

Sequence	z-score
CGGACUUCUCAAGACUUAUTT against Nlrc5	inactive: -0.897
CCUGCUUAAAGAUUACCCATT against Flt3l	inactive: -1.46
GGGAAGAGCAUGUUUGCUGTT against Surf4	inactive: 0.982
GGCCUUCAUGGAUUAUACCTT against Serpinb9	active: 2.09
GCUUCUGACAUAUUGUGCATT against Phxr2	inactive: -0.488
GCUCUCGGUUCCACUUUCATT against 4932438H23Rik	inactive: -0.212
GGAAAAGAAAAUCAUUGCGTT against Chmp2a	inactive: 0.66
GGCACAGAUUGUGGUGAAGTT against Ccdc43	inactive: -0.518
GGCUUCCAGUACCAUUAGGTT against Ucp1	inactive: -1.1
GGAACUGCUCAAGAUCAAGTT against Plagl2	inactive: 1.92
GGACCAUUCAUGGACUAGCTT against Map7	inactive: -0.413
GGAUCAUUGAUGUCAUCUATT against Abcb10	inactive: -1.68
GCUGCUUGUCCUAAGUUGATT against Aqp8	inactive: -0.165
CGGUCUUUAUACACAUAUATT against Wnt7a	inactive: -0.0297
GGCUGGAUCCUCAUUGACCTT against Kctd10	inactive: -0.963
GGCUGUAUGUAGUGAAUAUTT against Nck2	inactive: -0.572
GGUGGUUGAUCUGCUAAGGTT against Proser1	inactive: 0.637
GGAGUCAAUGCAAUUGUUUTT against Arl8b	inactive: -0.323
GGAACAAGGUCCUAAACCATT against Gtf2f1	inactive: -0.704
GCCCUUGCACUAUUUUUCCTT against Olfr1218	inactive: 0.902
GGAAUCAAUAAGAAUGACGTT against Tln2	inactive: -0.716
GGUUGGCAAGUUCCUGUAUTT against Cdk3	inactive: -0.825
GGAGAGGUCAGAAUAAUAATT against Tmprss11d	inactive: -0.423

Sequence	z-score
UGUUGGAUACUAGUCACAATT against Olfr1066	inactive: -0.24
GGGCUAGCCUAGAUAAAAATT against Sltm	inactive: -1.38
GGGAUAUGGUGUGAUCUUUTT against Cyp2b19	inactive: 0.705
GGACUAUGCAGAUGCCUACTT against Cacnb3	inactive: 7.2e-05
GGAUUCACGUAAGAUUGACTT against Prl6a1	inactive: 0.0592
CCAAACACUAUGUGACAAGTT against Trim8	inactive: -0.626
CCUCAUUGGUUUGACCCAGTT against Hsd17b6	inactive: 0.172
GGACAAUAUAUCCGGAUUUTT against Myl12b	inactive: -0.493
CCGAAUGACGGUUGAAUAUTT against Nkrf	inactive: 0.624
GGGCAGAAUGCCAGUGUACTT against Kif22	inactive: -0.305
GGAACUGAAAAAGUUGUUGTT against Niban1	inactive: -0.253
CCUCAACAUAUUCAAACAUTT against Tlr7	inactive: -0.269
GGACAUAAAAUAUCUACGGTT against Trim17	inactive: 0.301
GGGUCUUUGUACAGAUUGCTT against Olfr275	inactive: 0.0844
GCUCACCAGAAUUUGUGGATT against Tcp11x2	inactive: 0.815
CGGAGCUCUAAAUGAACAUTT against Snai3	inactive: 1.3
GCUACUAUAUGCGUUUCUUTT against Fads2	inactive: 0.98
GCUUUAUGCAGACAAACACTT against Zbtb8b	inactive: -0.785
GAUAAGUGCUUUCGUGUUUTT against Klrb1b	inactive: 0.0759
GCAACAUUUCUCGGAAAUUTT against Olfr1275	inactive: -0.266
GGUUUGUGUGGUUUUUCCUTT against Tmem216	inactive: -0.965
GCAAUUGUUAACUCUGGGATT against Olfr1200	inactive: 0.661

Two entries from above, in CSV form.
Sequence,z-score
GCUCACCAGAAUUUGUGGATT against Tcp11x2,inactive: 0.815
GCUACUAUAUGCGUUUCUUTT against Fads2,inactive: 0.98

Pulled one by one from the entries so far:
Sequence	z-score
GCUACUAUAUGCGUUUCUUTT against Fads2	inactive: 0.98
GCAACAUUUCUCGGAAAUUTT against Olfr1275	inactive: -0.266

Source: PubChem BioAssay AID1508600 (Functional Genomics Laboratory (NCATS/FGL), 2020)
